# Measurements from PubChem BioAssay AID651789 (National Center for Advancing Translational Sciences (NCATS), 2012).
# Inconclusive means that the source gave no clear call. Such entries were picked first, then a sample of the others. Potencies of inconclusive entries are doubtful fits and often do not repeat. Activity calls are given as the source filed them. Calls come from the whole dose curve; as a rule, active = well fitted inhibition curve with a large enough effect; inconclusive = small, poorly fitted or top-dose-only effect; inactive = no such curve, though single readings can be large or run the other way.
# Experiment: Acumen qHTS Assay for Inhibitors of the mTORC1 Signaling Pathway in WT MEF Cells: Hit Validation; note: nearly all actives have a fitted effect of over 60% in size
# Details: Acumen imaging; series mostly up to 37.3 µM
# In short: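 Read-out is immunofluorescent phospho-rpS6 (Ser235/236) normalised to PI-stained cell number, reported as % active cells using a 7.5 nM rapamycin threshold. Cells: WT or Tsc2-/-, p53-/- MEFs, compound-exposed 24 h at 37C; PI count also tracks viability.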
# Potency is the fitted concentration of half-maximal effect.
row,SMILES,Potency
1,CC1=C(C(=O)Nc2ccc(C)cc2C)C(c2cc(Br)ccc2F)n2ncc(C(=O)Nc3ccc(C)cc3)c2N1 (stereo unspecified),"inconclusive: 3.69 µM [inhibitor, full curve, poor fit]"
2,Cc1oc2ccc(O)c(CN3CCCC(C)C3)c2c1C(=O)Nc1ccccc1 (stereo unspecified),"inconclusive: 26.1 µM [inhibitor, single point]"
3,COc1ccccc1NC(=O)CSc1nnc2c3ccccc3n(C(C)C)c2n1,"inconclusive: 2.93 µM [inhibitor, single point]"
4,CCOc1ccc(OCC)c(NS(=O)(=O)c2ccc(-c3coc(C)n3)cc2)c1,"inconclusive: 13.1 µM [inhibitor, partial curve]"
5,Cc1cc(Cl)ccc1NC(=O)CN1C(=O)C(=O)c2ccccc21,"inconclusive: 26.1 µM [inhibitor, single point]"
6,O=C(NCC1CCN(Cc2cccc(Cl)c2)CC1)Nc1ccc(F)c(Cl)c1,inactive
7,COc1cc(C(=O)n2nc(C)c(Sc3ccc(Cl)cc3)c2C)cc(OC)c1OC,inactive
8,CC1=C(C(=O)OC2CCCC2)C(c2ccccc2Cl)CC(=O)N1 (stereo unspecified),inactive
9,CC(=O)Nc1cccc(-c2nnc(SCC(=O)c3cc([N+](=O)[O-])ccc3Br)o2)c1,"inconclusive: 2.93 µM [inhibitor, full curve]"
10,CCN1CCN(c2ccc(NS(=O)(=O)c3c(C)nc4sccn4c3=O)cc2Cl)CC1,"inconclusive: 23.3 µM [inhibitor, single point]"
11,Cc1ccc(C)c(Cn2c3ccccc3c3cnn(CC(=O)NC(C)CCc4ccccc4)c(=O)c32)c1 (stereo unspecified),active: 18.5 µM

# Among those listed so far, two contain fluorine:
row,SMILES,Potency
1,CC1=C(C(=O)Nc2ccc(C)cc2C)C(c2cc(Br)ccc2F)n2ncc(C(=O)Nc3ccc(C)cc3)c2N1 (stereo unspecified),"inconclusive: 3.69 µM [inhibitor, full curve, poor fit]"
6,O=C(NCC1CCN(Cc2cccc(Cl)c2)CC1)Nc1ccc(F)c(Cl)c1,inactive
